From publication PMC10470608, “Bacterial TANGO2 homologs are heme-trafficking proteins that facilitate biosynthesis of cytochromes c” (mBio, 2023) come the findings set out here.

Protein sequences, listed by entry. Tags and fused reporters are not part of them. Lines headed by an entry give the natural chain unless they say otherwise; changes in a name come on top.
UniProt Q8EKG7: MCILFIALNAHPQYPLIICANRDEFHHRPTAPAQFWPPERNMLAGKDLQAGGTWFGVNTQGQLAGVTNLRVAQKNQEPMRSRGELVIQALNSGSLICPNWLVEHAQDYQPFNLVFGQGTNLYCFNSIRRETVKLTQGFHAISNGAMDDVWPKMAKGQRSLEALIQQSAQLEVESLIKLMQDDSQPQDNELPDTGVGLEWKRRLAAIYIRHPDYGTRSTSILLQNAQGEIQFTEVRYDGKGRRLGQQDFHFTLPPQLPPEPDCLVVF
UniProt Q8EHT7: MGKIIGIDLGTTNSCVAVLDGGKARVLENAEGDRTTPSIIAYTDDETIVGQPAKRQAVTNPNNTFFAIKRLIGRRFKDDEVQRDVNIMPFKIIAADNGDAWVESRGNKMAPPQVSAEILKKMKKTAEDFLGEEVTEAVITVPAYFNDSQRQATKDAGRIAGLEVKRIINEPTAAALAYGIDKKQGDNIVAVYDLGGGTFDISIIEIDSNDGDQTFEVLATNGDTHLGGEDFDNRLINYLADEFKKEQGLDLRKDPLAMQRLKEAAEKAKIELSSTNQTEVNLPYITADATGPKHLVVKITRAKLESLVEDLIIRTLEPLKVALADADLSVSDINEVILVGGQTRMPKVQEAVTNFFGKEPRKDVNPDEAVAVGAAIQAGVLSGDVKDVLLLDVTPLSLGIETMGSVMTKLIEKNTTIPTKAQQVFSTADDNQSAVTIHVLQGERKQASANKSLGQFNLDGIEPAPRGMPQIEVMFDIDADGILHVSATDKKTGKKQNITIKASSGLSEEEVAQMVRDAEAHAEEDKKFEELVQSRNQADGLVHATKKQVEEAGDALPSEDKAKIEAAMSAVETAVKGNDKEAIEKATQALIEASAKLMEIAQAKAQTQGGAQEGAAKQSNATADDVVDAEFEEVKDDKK
UniProt Q8EBE6: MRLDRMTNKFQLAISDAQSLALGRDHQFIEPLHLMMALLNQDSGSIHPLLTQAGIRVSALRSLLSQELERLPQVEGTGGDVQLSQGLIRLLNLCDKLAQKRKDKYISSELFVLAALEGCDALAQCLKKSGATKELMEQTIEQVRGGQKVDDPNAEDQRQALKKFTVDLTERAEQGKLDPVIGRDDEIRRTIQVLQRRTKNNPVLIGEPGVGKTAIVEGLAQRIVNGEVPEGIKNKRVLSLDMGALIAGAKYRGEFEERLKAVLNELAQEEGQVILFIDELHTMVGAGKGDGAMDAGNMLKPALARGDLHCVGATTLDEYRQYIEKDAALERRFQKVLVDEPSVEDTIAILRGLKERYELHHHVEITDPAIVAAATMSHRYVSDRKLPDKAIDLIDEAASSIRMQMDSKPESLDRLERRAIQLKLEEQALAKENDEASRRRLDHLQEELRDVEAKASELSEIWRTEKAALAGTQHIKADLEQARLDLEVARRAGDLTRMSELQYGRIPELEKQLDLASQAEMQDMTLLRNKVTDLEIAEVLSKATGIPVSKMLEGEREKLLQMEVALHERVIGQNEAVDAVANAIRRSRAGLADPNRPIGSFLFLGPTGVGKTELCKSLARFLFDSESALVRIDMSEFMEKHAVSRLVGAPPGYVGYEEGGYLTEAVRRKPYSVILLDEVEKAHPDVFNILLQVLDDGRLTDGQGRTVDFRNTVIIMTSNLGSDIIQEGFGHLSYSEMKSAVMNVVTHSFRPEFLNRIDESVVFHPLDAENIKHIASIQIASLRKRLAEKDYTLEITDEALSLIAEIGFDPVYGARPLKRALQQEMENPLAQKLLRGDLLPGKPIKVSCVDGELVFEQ
UniProt Q8CX48: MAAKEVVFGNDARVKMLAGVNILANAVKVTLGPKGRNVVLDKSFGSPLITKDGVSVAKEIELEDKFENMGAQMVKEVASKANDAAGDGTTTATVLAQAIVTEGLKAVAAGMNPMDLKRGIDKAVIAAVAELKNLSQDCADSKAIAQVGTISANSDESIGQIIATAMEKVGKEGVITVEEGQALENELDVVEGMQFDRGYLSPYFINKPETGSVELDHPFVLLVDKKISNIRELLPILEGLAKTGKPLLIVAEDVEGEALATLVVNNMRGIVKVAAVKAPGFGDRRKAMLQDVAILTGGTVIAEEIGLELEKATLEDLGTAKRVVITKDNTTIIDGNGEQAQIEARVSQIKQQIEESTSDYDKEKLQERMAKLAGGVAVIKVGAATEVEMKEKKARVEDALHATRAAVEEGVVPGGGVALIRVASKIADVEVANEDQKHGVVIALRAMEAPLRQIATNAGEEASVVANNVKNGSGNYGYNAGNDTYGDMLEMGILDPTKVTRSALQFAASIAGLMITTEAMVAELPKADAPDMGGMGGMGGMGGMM

First the molecules themselves.
B1: catalase KatB (enzyme, UniProt Q8EHY4 1-486)
chain: MSQQYLTSQSGSPIADDQNSLSAGERGPLLLQDWHLIEKLAHFNRERIPERVVHAKGTGVYGTFTLTKDLSDYTIADHFNGVGKQTETFVRFSTVGGEMGSADAERDPRGFGLRFYTARGNHDIVGNNTPTFFLRDGIKFPDFIHTQKRNPLTNLKDPQAMWDFWSLNPEAMHQVTILMSDRGIPANYRQMHGYGSHTFSFWNAKGERFWVKFHFKSQQGVVNLSNEQADKLKGIDPDSSQRDMVVAITDGNFPRWTVNVQIMPEADANTYHINPFDLTKVWPHGDYPLIEIGVLELNRLPQNYFAEVEQVALAPSNLVPGVGASPDKMLQARLFAYADAQRYRIGANYNQLPVNCPHAAKANHHQRAGAMAGTQCPYHGSQTGGDASANYGPNSTIGALVEPANFAEPPLRLDGETARYSRYNQDDYTQAGNLYRIFSEEEKARLVATISGSLRQASMDVQQRMLAHFQKADADYGQRIKMALGL
B2: HtpG (protein, UniProt Q8EFF7 1-637)
chain: MSQQETHGFQTEVKQLLHLMIHSLYSNKEIFLRELVSNAADAADKLRYLALTNDALYEGDGELRVRISADKEKGTVTIEDNGVGMTRDGVIEHLGTIAKSGTAEFFKNLSGEASKDSQLIGQFGVGFYSAFIVAKKVTVRTRAAGHKANEAVLWESEGEGSFTVETITKATRGTEITLHLRDDEKEFADDWRLRSIITKYSDHISIPVEMWQEGTPERDGPDGEKIPATEGYWKAMNKATALWMRNKSEITDEEYQEFYKHISHDYTDALLWSHNRVEGKQEYTNLLYIPSKAPWDLWNRDRKHGLKLFVQRVFIMDDAEQFMPSYLRFVQGLIDSNDLPLNVSREILQDNHITKAMRTGITKRVLGMLEKLAKDDAEKYQQFWAEFGQVLKEGPAEDFANRERIAGLLRFASTHTGSAAPTVSLDDYISRMKEGQTKIYYIVADSHEAAANSPHLELLRKKGIEVLLMSERIDEWLINHLTEYKEKQLHSVTRGELELGELEDAAEKEAQEKLAEESAPLIERIKAALGASVADVKVTSRLTDTPACVVTGEGEMSTQMIKLMQAAGQPVPEVKPTFEVNPAHPLVSRLNDLQDEAAFADWSNLLLQQAQLSEKGSLADPSAFIKLMNQMLLANLK

No constants are given. Whether binding was seen depends on the method and setting. Binding seen in cells or lysates may run through a third protein. A yes stands for co-enrichment or nearness to the bait. Other partners may have been found. No binding means not detected with the bait.

For the test, the target named is HtpA-BirA* fusion (S. oneidensis) (UniProt Q8EKG7). The test is described as follows: proximity labelling; BioID: HtpA-BirA* as bait in S. oneidensis ΔhtpA, 15 µg/mL D-biotin and 0.2 mM IPTG for 16 h; biotinylated proteins enriched on beads and identified by LC-MS/MS.
As to DnaK (from UniProt Q8EHT7 1-639), the binding entry is given as “binds”. In the case of ClpB (from UniProt Q8EBE6 1-857), the binding entry is on record as “binds”.

As to GroEL (from UniProt Q8CX48 1-545), the binding result is listed as “binds”. For the molecule B1, the binding entry is on record as “no binding”. With B2, the binding result is given as “binds”.
